Source: PubChem BioAssay AID686943 (Drosophila RNAi Screening Center, 2013)

- Assay: 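Fly genes whose loss alters ERK activation after insulin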 (primary screen)
- Cell system: Drosophila S2R+ haemocyte-like cells expressing YFP-tagged ERK (Rolled)
- Reagent: long dsRNA against Drosophila genes
- Conditions: insulin stimulation versus unstimulated cells; dose and duration not given
- Detection: 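Per-plate z-scores of phospho-ERK immunostaining normalised to YFP-tagged ERK, measured with and without insulin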
- Direction: replicate 1, z-score of dpERK with insulin and replicate 2, z-score of dpERK with insulin: higher = more active ERK per ERK-YFP after insulin; replicate 1, z-score of dpERK under basal conditions: higher = more basal active ERK per ERK-YFP; replicate 1, z-score of ERK-YFP with insulin: higher = more YFP-tagged ERK signal
The screen tested about 23,000 reagents; this is an unselected part of those with a known target gene and a result. 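Extra replicates exist only for a retested subset of genes; insulin dose and duration not given; both raised and lowered dpERK matter.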 Reagents against one gene are numbered here. Not stated in the record: the amount of reagent, the time to read-out.

gene knocked down | reagent no. | replicate 1, z-score of dpERK with insulin | replicate 2, z-score of dpERK with insulin | replicate 1, z-score of dpERK under basal conditions | replicate 1, z-score of ERK-YFP with insulin
CG8958 | 1 | 0.07 | -0.39 | -0.08 | 0.18
RanGAP | 1 | 0.59 | -0.34 | 0.85 | -0.84
CG12516 | 1 | 0.12 | -0.12 | 0.47 | -0.37
ntc | 1 | 0.26 | 0.14 | -0.67 | 0.14
CG15482 | 1 | -1.27 | 0 | -0.07 | 0.32
CG13022 | 1 | 0.43 | 0.37 | -0.05 | 0.23
CG1636 | 1 | 1.23 | 2.1 | 0.55 | -0.16
ND-B16.6 | 1 | 0.49 | 0.13 | 0.59 | -0.66
ND-B16.6 | 2 | 0.72 | 0.29 | 0.03 | -0.09
insc | 1 | 0.88 | 2 | 0.85 | -0.78
cmpy | 1 | -0.75 | -0.6 | -0.15 | 0.29
CG10459 | 1 | 1.3 | 0.39 | 0.23 | 0.5
CG10459 | 2 | 0.11 | 0.97 | -0.58 | -1.15
Mur2B | 1 | 0.82 | -1.78 | 0.87 | -0.07
Mur2B | 2 | 0.07 | -1.02 | 0.56 | -0.09
Eig71Ek | 1 | -0.35 | -0.24 | 0.57 | 0.07
p24-1 | 1 | -1.2 | -0.68 | -0.44 | -0.28
CG33096 | 1 | 0.07 | 0.6 | 0.36 | -0.08
CG31093 | 1 | 0.18 | -0.12 | 0.85 | 0
JhI-26 | 1 | 0.23 | -0.26 | -0.49 | 0.1
Art6 | 1 | -0.21 | -0.75 | 0.29 | 0.75
a10 | 1 | -0.94 | -0.01 | -0.81 | 0.91
CG34305 | 1 | -0.47 | -0.61 | -0.36 | 0
Lsp1gamma | 1 | -0.14 | -0.29 | 0.23 | 0.09
mRpS18B | 1 | 0.24 | 0.1 | -0.88 | 0.7
PCB | 1 | -0.18 | -0.16 | -0.66 | 0.56
Taf7 | 1 | -0.43 | 0.8 | -1.64 | 1.36
PIG-C | 1 | -0.47 | -0.2 | -1.77 | 0.38
Slmap | 1 | -0.89 | -0.12 | -0.59 | 0.86
CG9593 | 1 | 1.15 | -1.54 | -0.15 | 0.1
CG5273 | 1 | 1.42 | -0.03 | -0.71 | -0.05
CG7794 | 1 | -0.25 | -0.02 | 0.49 | -0.3
Prosbeta6 | 1 | -1.21 | -3.3 | -2.51 | 1.49
CalpC | 1 | 0.47 | 0.33 | 0.29 | 0.09
CG4042 | 1 | 0.28 | 0.27 | -0.14 | 0.07
slf | 1 | -0.03 | 0.26 | 0.08 | 0.69
Ssadh | 1 | -0.03 | 0.25 | -0.15 | -2.29
ZIPIC | 1 | 0 | -0.58 | -0.64 | 0.05
CG42337 | 1 | -1.17 | 0.74 | 0.29 | 1.62
CG42337 | 2 | -4.16 | -3.67 | -2.54 | -3.79
CG12112 | 1 | 0.29 | 0.47 | -0.6 | -0.11
CG13252 | 1 | 0.09 | 0.26 | -0.67 | -0.31
CG13605 | 1 | 0.08 | -0.33 | -0.55 | 0.28
IntS3 | 1 | 0.12 | 1.18 | 1.88 | 0.69
peng | 1 | -0.49 | -0.16 | -0.98 | -0.42
CG11893 | 1 | -0.12 | -0.17 | -0.26 | 0.43
Alp6 | 1 | -0.48 | -0.3 | 0.27 | 0.39
CG15044 | 1 | 1.23 | 0.55 | 0.86 | 0.16
CG15044 | 2 | 0.2 | 1.6 | 0.25 | -1.13
CG43089 | 1 | 0.1 | 0.25 | -0.05 | 0.08
mus301 | 1 | -0.68 | 0.61 | 1.03 | 0.6
mora | 1 | 0.59 | 0.24 | 0.43 | -0.16
CG10979 | 1 | 0.13 | 0.33 | -0.17 | 0.31
CG34232 | 1 | -2.7 | -3.27 | -1.19 | 1.04
uzip | 1 | -0.28 | 0.16 | -0.39 | -0.28
CG13562 | 1 | -0.31 | -0.35 | 0.31 | 0.01
Prx1 | 1 | -0.22 | 0.29 | 1.22 | 0.62

Limited to “replicate 1, z-score of ERK-YFP with insulin”, for 7 of the entries above:
CG43089	0.08
mus301	0.6
mora	-0.16
CG10979	0.31
CG34232	1.04
uzip	-0.28
CG13562	0.01
